# Test results published in patent US20060282909A1 (published 2006).
# For part of these data: Where cells or extracts were used, other partners may take part. Where a protein sequence is shown, tags need not be part of it. For part of these data: For at least one entry, the source does not settle the construct or the ends of the probe. For part of these data: No signal at the amounts used counts as a negative.
# Legend:
# [1] = biological target: T1, NF-AT3 Rel-homology domain (NFATC4) (Homo sapiens) (UniProt Q14934); assay: EMSA; conditions: protein translated in vitro, label: 32P
# T1 sequence: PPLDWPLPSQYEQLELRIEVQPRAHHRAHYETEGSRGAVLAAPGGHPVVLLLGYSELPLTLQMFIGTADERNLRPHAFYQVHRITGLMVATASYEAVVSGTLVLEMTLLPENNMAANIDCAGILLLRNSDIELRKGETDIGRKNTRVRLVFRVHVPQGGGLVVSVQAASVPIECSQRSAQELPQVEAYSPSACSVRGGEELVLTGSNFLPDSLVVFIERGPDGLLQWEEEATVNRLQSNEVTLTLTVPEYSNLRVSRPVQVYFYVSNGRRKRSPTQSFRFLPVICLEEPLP
# [2] = biological target: T2, NF-AT3 endogenous (cardiac extract) (UniProt D3Z9H7); assay: competition with a labelled probe; conditions: unlabeled IL-2 site at 100-fold excess eliminates complexes on -927 probe; protein in an extract; label: 32P
# T2 sequence (looked up, limits assumed): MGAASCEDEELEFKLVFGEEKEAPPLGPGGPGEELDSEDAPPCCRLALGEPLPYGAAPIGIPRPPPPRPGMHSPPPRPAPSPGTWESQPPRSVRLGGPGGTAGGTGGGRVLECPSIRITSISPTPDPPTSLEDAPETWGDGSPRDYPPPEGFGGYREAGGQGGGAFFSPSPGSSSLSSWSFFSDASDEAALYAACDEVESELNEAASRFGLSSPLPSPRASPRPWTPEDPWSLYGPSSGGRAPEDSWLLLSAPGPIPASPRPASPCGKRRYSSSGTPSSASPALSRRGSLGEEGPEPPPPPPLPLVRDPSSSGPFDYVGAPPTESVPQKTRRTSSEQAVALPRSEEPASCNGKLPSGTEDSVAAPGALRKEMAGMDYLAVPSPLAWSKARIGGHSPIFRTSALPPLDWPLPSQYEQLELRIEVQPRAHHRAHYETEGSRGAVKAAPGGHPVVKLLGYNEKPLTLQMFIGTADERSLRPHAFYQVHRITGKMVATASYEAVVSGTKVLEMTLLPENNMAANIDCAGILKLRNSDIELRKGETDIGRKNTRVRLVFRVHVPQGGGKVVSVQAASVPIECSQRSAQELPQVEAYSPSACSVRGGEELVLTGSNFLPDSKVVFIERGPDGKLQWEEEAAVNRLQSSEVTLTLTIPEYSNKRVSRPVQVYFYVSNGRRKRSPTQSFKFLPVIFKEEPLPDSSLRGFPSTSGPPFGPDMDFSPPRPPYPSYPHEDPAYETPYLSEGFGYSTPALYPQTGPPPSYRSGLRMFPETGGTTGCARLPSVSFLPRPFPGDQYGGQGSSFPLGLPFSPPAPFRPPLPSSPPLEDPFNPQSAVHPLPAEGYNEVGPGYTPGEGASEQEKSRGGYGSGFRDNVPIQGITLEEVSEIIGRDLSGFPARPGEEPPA
# [3] = biological target: T2, NF-AT3 endogenous (cardiac extract); assay: EMSA; conditions: protein in an extract; label: 32P
sequence,measurement,setting,value
TACATTGGAAAATTTTATTACAC (double strand) [IL-2 NF-AT consensus site],binding result,"[1]; 1 ug poly(dI-dC), room temperature",binds
same,binding result,[2],binds
CTATCCTTTTGTTTTCCATCCTG (double strand) [BNP -927],binding result,[3],binds
same,binding result,"[1]; binds as avidly as IL-2 consensus site, 1 ug poly(dI-dC), 20 min room temperature",binds
TCCCTGCCTTTTCCAGCAACGGT (double strand) [BNP -327],binding result,[1]; no binding detected,no binding
GCTCCAGGATAAAAGGCCACGGT (double strand) [BNP -27],binding result,"[1]; no binding detected, site also binds GATA4 per cited work",no binding
